From the supplement of paper PMC9135407
Values joined by “and” are separate entries in the source; they are usually repeats but may differ in a detail not shown here. Equal values may be shown once. Where a name gives a salt, the structure may show the parent alone. ± gives the standard deviation of the averaged measurements. This is one part of the list. Plates or batches differ in their baseline, so values are only roughly comparable.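 Culture-activated primary human stellate myofibroblasts, where regained lipid droplets signal inactivation. Value: share of Hoechst-counted cells above a per-plate Bodipy cutoff, in duplicate wells, with DMSO negative and nortriptyline positive controls on each plate. Hits: a control-normalized score above the plate's top-tenth-percentile nortriptyline wells, or one of a plate's three best wells. Final well concentrations are not given.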

Tested on: primary human hepatic stellate cells (donor 1)
Test: percent Bodipy-positive cells; higher = more lipid droplet accumulation
Details: 48 h
Description: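 Primary lipid accumulation screen in primary human hepatic stellate cell myofibroblasts (donor 1, passage 8) in 384-well plates. 100 nL of library compound was pin-transferred into 30 µL medium in duplicate, and cells were treated for 48 h. The 'Scaled' score combines distance from plate baseline, toxicity and reproducibility penalties, and is normalised to nortriptyline (positive) and DMSO (negative) controls on each plate. A hit is defined as scaled >0.85 or among the top 3 wells per plate.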

[1] = library stock concentration: 3.33 mM
[2] = library stock concentration: 10 mM
[3] = library stock concentration: 1 mM

SMILES: Cc1c(-c2ccccc2)oc2c(C(=O)OCCN3CCCCC3)cccc2c1=O [Flavoxate HCl]
- percent Bodipy-positive cells [1]: 9.38 ± 0.53%
- percent Bodipy-positive cells [2]: 39.3 ± 8.2%

SMILES: Cc1c(-c2ccccc2)oc2c(C(=O)OCCN3CCCCC3)cccc2c1=O [Flavoxate hydrochloride]
- percent Bodipy-positive cells: 51.8 ± 33%

SMILES: CCCCCC(O)/C=C/C=O (stereo not given) [4-hydroxy Nonenal]
- percent Bodipy-positive cells [3]: 12.8 ± 3%

SMILES: CC12CCC(CC1=O)C2(C)C (stereo not given) [Camphor (1r)]
- percent Bodipy-positive cells (library stock concentration: 13.1 mM): 2.92 ± 1.2%

SMILES: C[C@@H]1NC(=O)[C@@H](N)CNC(=O)[C@H](C2CCNC(=N)N2)NC(=O)/C(=C/NC(N)=O)NC(=O)[C@H](CNC(=O)CC(N)CCCN)NC1=O.N=C1NCC[C@H]([C@@H]2NC(=O)/C(=C/NC(N)=O)NC(=O)[C@H](CNC(=O)C[C@@H](N)CCCN)NC(=O)[C@H](CO)NC(=O)[C@@H](N)CNC2=O)N1 [Capreomycin sulfate]
- percent Bodipy-positive cells (library stock concentration: 2.6 mM): 2.56 ± 0.9%
- percent Bodipy-positive cells [2]: 10.6 ± 3%

SMILES: CN[C@@H]1[C@@H](O[C@H]2O[C@H](CO)[C@@H](N)[C@H](O)[C@H]2O)OC2C[C@@H](N)[C@@H](O[C@H]3[C@H](O)[C@@H](O)[C@H](N)C[C@@H]3N)OC2[C@@H]1O (stereo not given in full) [Apramycin]
- percent Bodipy-positive cells: 12.1 ± 3%
- percent Bodipy-positive cells [2]: 26.7 ± 10%

SMILES: CC1(C)O[C@H]2CC(=O)OC[C@]23[C@H]2CC[C@@]4(C)[C@H](c5ccoc5)OC(=O)[C@H]5O[C@]54[C@]2(C)C(=O)C[C@@H]13 [Limonin]
- percent Bodipy-positive cells [1]: 23.9 ± 3%
- percent Bodipy-positive cells [2]: 18.1 ± 3.7%

SMILES: O=C(O)CCC/C=C\C[C@@H]1[C@@H](/C=C/[C@@H](O)CCc2cccc(C(F)(F)F)c2)[C@H](O)C[C@@H]1O [17-trifluoromethylphenyl trinor Prostaglandin F2.alpha.]
- percent Bodipy-positive cells [3]: 15.2 ± 4.6%

SMILES: CCN(CC)CCOC(=O)c1ccc(N)cc1Cl [Chloroprocaine HCl]
- percent Bodipy-positive cells [1]: 9.42 ± 0.52%
- percent Bodipy-positive cells [2]: 33.62 ± 0.28%

SMILES: NC(=O)c1cccc(-c2cc(Nc3ccc(OC(F)(F)F)cc3)ncn2)c1
- percent Bodipy-positive cells (library stock concentration: 80 uM): 18.8 ± 10%
- percent Bodipy-positive cells (library stock concentration: 400 uM): 13 ± 5.7%
- percent Bodipy-positive cells (library stock concentration: 2 mM): 16.9 ± 4.2%
- percent Bodipy-positive cells [1]: 14 ± 8.1%
- percent Bodipy-positive cells [2]: 29.3% and 25.7%

SMILES: OC[C@H]1NC[C@H](O)[C@@H](O)[C@@H]1O [1-Deoxynojirimycin hydrochloride]
- percent Bodipy-positive cells [2]: 41.1 ± 4.8%

SMILES: C=C1/C(=C\C=C2/CCC[C@]3(C)[C@@H]([C@H](C)CCCC(C)C)CC[C@@H]23)C[C@@H](O)C[C@@H]1O [Alfacalcidol]
- percent Bodipy-positive cells [1]: 10.8 ± 1.2%
- percent Bodipy-positive cells (library stock concentration: 5 mM): 5.45 ± 1.4%

SMILES: CCCCCC(=O)CC[C@@H]1[C@@H](C/C=C\CCCC(=O)O)[C@@H](O)C[C@H]1O [13,14-dihydro-15-keto Prostaglandin F2.alpha.]
- percent Bodipy-positive cells [3]: 16.4 ± 8.7%

SMILES: CCN(CC)CCOC(=O)c1cc(Cl)c(N)cc1OC [SDZ-205,557 hydrochloride]
- percent Bodipy-positive cells [2]: 28.7 ± 3.9%

SMILES: CCN(CC)CCOC(=O)c1cc(Cl)c(N)cc1OC [SDZ 205-557 hydrochloride]
- percent Bodipy-positive cells [2]: 6.68 ± 0.86%

SMILES: NC/C=C/C(=O)O [(E)-4-amino-2-butenoic acid]
- percent Bodipy-positive cells [2]: 23.3 ± 13%

SMILES: CCCCC[C@H](O)/C=C/[C@H]1C(=O)C[C@H](O)[C@@H]1CCCCCCC(=O)O [Prostaglandin D1]
- percent Bodipy-positive cells [3]: 10.7 ± 0.46%

SMILES: CCCCCCCCCCCSCC(=O)O [3-Thiatetradecanoic Acid]
- percent Bodipy-positive cells [3]: 7.79 ± 0.48%

SMILES: Cc1ccc2c(c1)c1c3n2CCNC3CCC1 (stereo not given) [Pirlindole mesylate]
- percent Bodipy-positive cells: 45.5 ± 2.9%

SMILES: C[n+]1c2cc(N)ccc2cc2ccc(N)cc21 [Acriflavinium hydrochloride]
- percent Bodipy-positive cells (library stock concentration: 7.7 mM): 0%
- percent Bodipy-positive cells [2]: 4.78 ± 5.7%

SMILES: O=C(N[C@H](CO)[C@H](O)c1ccc([N+](=O)[O-])cc1)C(Cl)Cl [Chloramphenicol]
- percent Bodipy-positive cells: 23.4 ± 1.2%
- percent Bodipy-positive cells [1]: 9.3 ± 3.9%
- percent Bodipy-positive cells (library stock concentration: 6.2 mM): 6.94% and 3.4%
- percent Bodipy-positive cells [2]: 8.37% and 9.35% and 27.9%

SMILES: O=C(O)CCNC(=O)c1ccccc1 [Betamipron]
- percent Bodipy-positive cells [1]: 10.3 ± 2.1%
- percent Bodipy-positive cells [2]: 29% and 33.3%

SMILES: CCC[C@@H]1C[C@@H](C(=O)N[C@@H]([C@H]2O[C@H](SC)[C@H](O)[C@@H](O)[C@H]2O)[C@H](C)Cl)N(C)C1 [Clindamycin hydrochloride]
- percent Bodipy-positive cells: 52.7 ± 31%

SMILES: CCC[C@@H]1C[C@@H](C(=O)N[C@@H]([C@H]2O[C@H](SC)[C@H](O)[C@@H](O)[C@H]2O)[C@H](C)Cl)N(C)C1 [Clindamycin]
- percent Bodipy-positive cells [1]: 8.86 ± 1.6%
- percent Bodipy-positive cells [2]: 17.9 ± 10%

SMILES: CCC[C@@H]1C[C@@H](C(=O)N[C@@H]([C@H]2O[C@H](SC)[C@H](O)[C@@H](O)[C@H]2O)[C@H](C)Cl)N(C)C1 [Clindamycin HCl]
- percent Bodipy-positive cells [1]: 3.68 ± 2.3%
- percent Bodipy-positive cells (library stock concentration: 4.7 mM): 7.34 ± 1.7%
- percent Bodipy-positive cells [2]: 13.7 ± 1.1%

SMILES: COc1ccc(/C=C/c2ccccc2F)cc1
- percent Bodipy-positive cells [3]: 14 ± 0.68%

SMILES: CO[C@H]1/C=C\C=C(/C)C(=O)NC2=CC(=O)C(NCCN(C)C)=C(C[C@@H](C)C[C@H](OC)[C@H](O)[C@@H](C)/C=C(\C)[C@@H]1OC(N)=O)C2=O [17-DMAG (Alvespimycin) HCl]
- percent Bodipy-positive cells [1]: 50.4 ± 9.2%

SMILES: NCCCNCCCCN(CCCN)/[N+]([O-])=N/O [Spermine NONOate]
- percent Bodipy-positive cells [3]: 6.6 ± 0.25%

SMILES: Cl.N/C(=N\Cc1ccccc1)NC(=O)c1nc(Cl)c(N)nc1N
- percent Bodipy-positive cells (library stock concentration: 14 mM): 97.8 ± 1.3%

SMILES: COc1ccc(C2=N[C@@H](c3ccc(Cl)cc3)[C@H](c3ccc(Cl)cc3)N2C(=O)N2CCNC(=O)C2)c(OC(C)C)c1 [Nutlin-3a]
- percent Bodipy-positive cells [2]: 93.1 ± 2%

SMILES: Cn1cnc2c1c(=O)[nH]c(=O)n2C [Theobromine]
- percent Bodipy-positive cells: 9.59 ± 0.54%
- percent Bodipy-positive cells [2]: 12.6% and 24%

SMILES: CCCCC[C@H](O)/C=C/[C@H]1[C@H](O)CC(=O)[C@@H]1CC(=O)CCCCC(=O)O [6-keto Prostaglandin E1]
- percent Bodipy-positive cells [3]: 9.84 ± 3.3%

SMILES: CC1=NN(c2ccccc2)C(=O)C1 [Edaravone]
- percent Bodipy-positive cells [1]: 25 ± 20%
- percent Bodipy-positive cells [2]: 19.7 ± 1.1%

SMILES: CC1=NN(c2ccccc2)C(=O)C1
- percent Bodipy-positive cells [2]: 7.43 ± 2.9%

SMILES: CCN(CC)CCNC(=O)c1cc(Cl)c(N)cc1OC [Metoclopramide hydrochloride]
- percent Bodipy-positive cells (library stock concentration: 5.9 mM): 3.1 ± 1.2%

SMILES: CCN(CC)CCNC(=O)c1cc(Cl)c(N)cc1OC [MetoclopraMide HCl]
- percent Bodipy-positive cells [1]: 17.3 ± 0.46%
- percent Bodipy-positive cells [2]: 21.9 ± 7.7%

SMILES: CCN(CC)CCNC(=O)c1cc(Cl)c(N)cc1OC [Metoclopramide monohydrochloride]
- percent Bodipy-positive cells: 28.5 ± 1.2%

SMILES: CCN(CC)CCNC(=O)c1cc(Cl)c(N)cc1OC [Metoclopramide HCl]
- percent Bodipy-positive cells (library stock concentration: 6.7 mM): 8.64 ± 3%

SMILES: NCCCNCCCCNCCCN [Spermine tetrahydrochloride]
- percent Bodipy-positive cells [2]: 12.7 ± 3.9%

SMILES: CC(C)(CO)C(O)C(=O)NCCCO (stereo not given) [Panthenol]
- percent Bodipy-positive cells (library stock concentration: 9.7 mM): 11.4 ± 4%

SMILES: CC(C)(CO)C(O)C(=O)NCCCO (stereo not given) [Panthenol (D)]
- percent Bodipy-positive cells: 26.4 ± 4%

SMILES: CN(C)C/C=C(/c1ccc(Br)cc1)c1cccnc1 [Zimelidine dihydrochloride]
- percent Bodipy-positive cells (library stock concentration: 5.1 mM): 45.5 ± 6.7%
- percent Bodipy-positive cells [2]: 52.4 ± 7.7%

SMILES: CN(C)C/C=C(/c1ccc(Br)cc1)c1cccnc1 [Zimelidine dihydrochloride monohydrate]
- percent Bodipy-positive cells: 62.8 ± 8.8%
